For this test, the target named is Taxol-induced microtubules (MTs) (Drosophila (endogenous in wild-type larval brains and body walls)). Kind of test: co-sedimentation; MT cosedimentation from homogenates of 50 wild-type larval brains or 25 larval body walls in BRB80 (80 mM PIPES pH 7.8, 1 mM EGTA, 1 mM MgCl2, 0.1% NP-40); clarified at 100,000 g, 4°C; 1 mM GTP and DTT, then 20 µM Taxol at 30°C for 30 min; spun through a 10% sucrose cushion at 180,000 g, 25-30°C; pellet analysed by western blot. (In general: In western blotting, separated proteins are transferred to a membrane and probed.)

No constants are given. Whether binding was seen depends on the method and setting. In cells and extracts the contact can be indirect. Binding can be weak; no strength is given.

In PMC8572007 one finds binding data, which are given here for one molecule.

B1: Rae1 (protein, UniProt Q9W2E7 1-346)
chain: MFGATQSTNRMNDFEVASPPDDSVSALEFSPSTVQKNFLVAGSWDSTVRCWEVEQNGATVPKSMKTMGGPVLDVCWSDDGSKVFVASCDKQVKLWDLASDQVMQVAAHDGPVKTCHMVKGPTYTCLMTGSWDKTLKFWDTRSPNPMMTINLPERCYCADVEYPMAVVGTANRGLIIYSLQNSPTEYKRQESPLKYQHRAISIFRDKKKEPTGCALGSIEGRVAIQYVNPGNPKDNFTFKCHRTTGTSGYQDIYAVNDIAFHPVHGTLVTVGSDGTFSFWDKDARTKLKSSETMDQSITKCGFNANGQIFAYAVGYDWSKGHEYFNPAKKPQIFLRSCYDELKPRIN
On to B1, for which the binding entry was “binds”.
